# Laboratory results reported in PubChem BioAssay AID504648 (National Center for Advancing Translational Sciences (NCATS), 2011).
# Out of some 390,000 compounds screened, about 610 (0.16%) were called active. The inconclusive results got no clear call from the source; some entries with a clear call stand among them for comparison. Calls come from the whole dose curve; as a rule, active = well fitted inhibition curve with a large enough effect; inconclusive = small, poorly fitted or top-dose-only effect, or effect the other way, or another doubt; inactive = no such curve, though single readings can be large or run the other way. A potency beside an inconclusive call is a rough fit, not a confirmed value.
# Experiment: Nrf2 qHTS screen for inhibitors: counterscreen for cytotoxicity
# Details: A549 ARE-Fluc cells, CellTiter-Fluor viability, 18-24 h; activity change, negative = cytotoxicity: at 46 µM (top of the series)
# In short: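 A549 ARE_Fluc cells in 5% FBS OPTI-MEM were exposed to compounds in concentration-response for 18-24 h at 37 deg C. Viability was read by CellTiter-Fluor fluorescence (Ex 405/Em 525) after 30 min, before the luciferase read.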
# % is set by controls: 0 for no effect and ±100 for the full control effect; potency is the fitted concentration of half-maximal effect.
SMILES,Potency,"activity change, negative = cytotoxicity"
CCCCCCCCCCCCCCCCn1cc[n+](C)c1,"inconclusive: 10.3 µM [falling, partial curve, poor fit]",
COc1ccccc1CNS(=O)(=O)c1ccc2c(c1)CC(C)N2C(=O)C1CCC1 (configuration not stated),inactive,
COc1ccc(N2C(=O)CC(N3CCN(c4ccc(S(C)(=O)=O)cc4)CC3)C2=O)cc1 (configuration not stated),,inactive: -14.1%
CCOc1ccc(CNC(=O)c2cnc3sc(N(CC)CC)nn3c2=O)cc1,,inactive: 2.94%
C=C1C(=O)OC2CC1C(O)CC(C)=CCCC(C)=CC(O)CC2C (configuration not stated),active: 14.6 µM,
Cc1nc(-c2ccc(S(=O)(=O)N3CCN(Cc4ccccc4)CC3)s2)cs1,,inactive: 3.25%
CCCCn1c(N2CCC(Cc3ccccc3)CC2)nc2c1c(=O)[nH]c(=O)n2C,"inconclusive: 25.9 µM [falling, partial curve, poor fit]",
O=C(CN1C(=O)c2cccc3cccc1c23)NCc1cccnc1,"inconclusive: 6.51 µM [activator, partial curve, poor fit]",
CC1=C(CC(=O)c2ccccc2)C(=O)c2ccccc2C1=O,"inconclusive: 23.1 µM [activator, partial curve, poor fit]",
Cc1ccc(C(=S)N2CCN(Cc3ccccc3)CC2)cc1,"inconclusive: 5.8 µM [activator, partial curve, poor fit]",
CN(Cc1ccccc1)C(=O)C1CCN(S(C)(=O)=O)CC1,,inactive: -6%
NC(=O)c1ccc(NC(=O)CCc2nc3ccccc3s2)cc1,,inactive: 9.05%
Cc1ccc(NC(=S)NC2CCN(Cc3ccccc3)CC2)c(C)c1,"inconclusive: 1.84 µM [activator, partial curve, poor fit]",
CC1(c2ccc3ccccc3c2)NC(=O)NC1=O (configuration not stated),"inconclusive: 25.9 µM [falling, partial curve, poor fit]",
O=C1NC(=O)c2cc(Oc3ccc([N+](=O)[O-])cc3)ccc21,"inconclusive: 18.4 µM [falling, partial curve]",
NC(=O)c1cccc(-c2cnc(N)c(C(=O)c3cccnc3)n2)c1,"inconclusive: 23.1 µM [falling, partial curve, poor fit]",
CCCCc1oc2c(c(=O)c1C)C(=O)CC(c1ccccc1)C2 (configuration not stated),"inconclusive: 16.4 µM [falling, partial curve, poor fit]",
Cc1ccccc1CN(C)Cc1cc(=O)oc2c(C)c(C)ccc12,,inactive: 0.714%
O=C(c1cc(S(=O)(=O)Nc2ccccc2F)c(Cl)cc1Cl)N1CCN(CCO)CC1,"inconclusive: 10.3 µM [falling, partial curve, poor fit]",
CCCc1nc(SCc2cccnc2)c2c(=O)n(C)c(=O)n(C)c2n1,,inactive: -1.12%
CSc1ccc(NC(=O)NCCCN2CCC(Cc3ccccc3)CC2)cc1,"inconclusive: 14.6 µM [falling, partial curve]",
COc1ccc(CN2CCc3ccc(NC(=O)CCc4ccccc4OC)cc3C2)c(O)c1,"inconclusive: 29.1 µM [falling, partial curve, poor fit]",
CCCN(CCC)C(=O)Cc1ccc(F)cc1,"inconclusive: 3.66 µM [activator, full curve, poor fit]",

SMILES,Potency,"activity change, negative = cytotoxicity"
NC(=O)c1ccc(Oc2ccc(Cl)cc2)c([N+](=O)[O-])c1,"inconclusive: 2.91 µM [activator, single point]",
CCOc1ccc(OCc2ccc(C(=O)N/N=C(\C)c3ccccn3)cc2)cc1,"inconclusive: 1.84 µM [falling, partial curve, poor fit]",
CCOC(=O)c1sc2nc(C)c3c(c2c1N)CC(C)(C)OC3,,inactive: 4.15%
N=c1c2c(ncn1Cc1ccco1)Oc1c(ccc3ccccc13)C2c1ccccc1 (configuration not stated),"inconclusive: 23.1 µM [falling, single point]",
COc1ccc(C2C3=C(CC(C)(C)CC3=O)OC(N)=C2[N+](=O)[O-])cc1 (configuration not stated),"inconclusive: 3.66 µM [activator, full curve]",
CCn1c(=O)c(C(=O)NCc2ccccc2OC)c(O)c2ccccc21,"inconclusive: 3.66 µM [activator, partial curve, poor fit]",
CCC(=O)N/N=C/c1ccc(-c2ccc([N+](=O)[O-])cc2)o1,"inconclusive: 32.6 µM [falling, partial curve, poor fit]",
CCOC(=O)N1CCN(C(=O)c2ccc3c(c2)N(Cc2cccc(Cl)c2)C(=O)c2ccccc2S3=O)CC1 (configuration not stated),"inconclusive: 11.6 µM [falling, partial curve, poor fit]",
COC(=O)Nc1nncs1,"inconclusive: 20.6 µM [activator, partial curve]",
CCn1c(N2CCN(C(=O)C34CC5CC(CC(C5)C3)C4)CC2)nc2ccccc21,"inconclusive: 23.1 µM [falling, partial curve, poor fit]",
C[C@@H]1C(=O)N(S(=O)(=O)c2ccccc2[N+](=O)[O-])[C@H]1c1ccc(-c2ccccc2)cc1,,inactive: 5.74%
CCOC(=O)c1sc(N2C(=O)C(O)=C(C(=O)c3ccco3)C2c2ccc([N+](=O)[O-])cc2)nc1C (configuration not stated),,inactive: -24.4%
Cc1ccc(-c2onc(C)c2C)cc1S(=O)(=O)Nc1cccc(Cl)c1C,"inconclusive: 25.9 µM [falling, single point]",
COc1ccc(N2C(=O)CCSC23C(=O)N(Cc2ccc(F)cc2)c2ccccc23)cc1 (configuration not stated),,inactive: -11.9%
O=C(CSc1ccccc1F)NC(=O)c1ccc(Cl)cc1,,inactive: 6.65%
Cn1c(/C=N/Nc2nc3ccccc3[nH]2)nc2ccccc21,,inactive: 0.874%
Clc1cccc(CSc2nnc(-c3ccccn3)n2Cc2ccco2)c1,"inconclusive: 25.9 µM [falling, single point]",
CCOc1ccc(CCN2C(=O)C(=O)N([C@@H](CC(C)C)CN3CCC[C@@H]3CN3C(=O)C(=O)NC[C@@H]3Cc3ccccc3)C[C@@H]2CC(C)C)cc1,,inactive: -24.1%
COc1ccc(C(=O)NC(Nc2ccccc2)C(Cl)(Cl)Cl)cc1 (configuration not stated),"inconclusive: 20.6 µM [falling, single point]",
CN(C(=O)c1ccc2c(c1)N(Cc1ccc(F)cc1)C(=O)c1ccccc1S2(=O)=O)C1CCCCC1,"inconclusive: 29.1 µM [falling, single point]",
COc1ccc(S(=O)(=O)N2CCC(N3CCCC3)CC2)cc1,,inactive: 1.2%
COC(=O)Cc1c(C)c2ccc(OC(C)C)cc2oc1=O,,inactive: -0.598%
CC1C(=O)N(Cc2ccccc2F)c2ccccc2N1C(=O)c1c(F)cccc1F (configuration not stated),,inactive: 1.21%

# Copied from the list.
# `Cc1nc(-c2ccc(S(=O)(=O)N3CCN(Cc4ccccc4)CC3)s2)cs1` – activity change, negative = cytotoxicity: inactive: 3.25%
# `COc1ccc(C2C3=C(CC(C)(C)CC3=O)OC(N)=C2[N+](=O)[O-])cc1` (configuration not stated) – Potency: inconclusive: 3.66 µM [activator, full curve]
# `COc1ccc(N2C(=O)CC(N3CCN(c4ccc(S(C)(=O)=O)cc4)CC3)C2=O)cc1` (configuration not stated) – activity change, negative = cytotoxicity: inactive: -14.1%
# `CCOc1ccc(OCc2ccc(C(=O)N/N=C(\C)c3ccccn3)cc2)cc1` – Potency: inconclusive: 1.84 µM [falling, partial curve, poor fit]
# `O=C(CN1C(=O)c2cccc3cccc1c23)NCc1cccnc1` – Potency: inconclusive: 6.51 µM [activator, partial curve, poor fit]

# (continued)

SMILES,Potency,"activity change, negative = cytotoxicity"
Cc1nc2nc(-c3ccccc3)[nH]n2c(=O)c1C,"inconclusive: 8.2 µM [activator, partial curve, poor fit]",
Cc1ccc(CNC(=O)c2cc(S(=O)(=O)N3CCCCC3)ccc2N2CCOCC2)cc1,"inconclusive: 25.9 µM [falling, partial curve, poor fit]",
CCOC(=O)c1ccc(Nc2nnc(C(C)(C)C)c(=O)[nH]2)cc1,"inconclusive: 29.1 µM [falling, single point]",
COc1ccc(-c2ccc3ncnc(NCCc4cnc[nH]4)c3c2)cc1OC,"inconclusive: 20.6 µM [falling, partial curve, poor fit]",
COc1ccc(C)c2sc(N(CCCN(C)C)C(=O)c3ccc(S(=O)(=O)N4CCc5ccccc5C4)cc3)nc12,"inconclusive: 29.1 µM [falling, single point]",
Cc1ccc(NC(=O)Nc2cccc([N+](=O)[O-])c2)cc1F,"inconclusive: 18.4 µM [falling, partial curve, poor fit]",
CC1CCN(S(=O)(=O)c2ccc(Cl)cc2Br)CC1,"inconclusive: 4.11 µM [falling, partial curve, poor fit]",
CSCCC(NS(=O)(=O)c1ccc(Cl)cc1)C(=O)OCC(=O)c1c(C)[nH]c2ccccc12 (configuration not stated),"inconclusive: 29.1 µM [falling, single point]",
COc1ccc(CCNC(=O)CNS(=O)(=O)c2cccs2)cc1OC,"inconclusive: 29.1 µM [activator, partial curve, poor fit]",
O=C1c2ccccc2C(=O)N1c1cccc2ccncc12,,inactive: 5.1%
Cc1nc(N2CCc3ccccc3C2)[nH]c(=O)c1CCC(C)C,"inconclusive: 0.651 µM [falling, partial curve, poor fit]",
O=C(Nc1ccc(F)cc1)c1ccc(-n2ccnc2)nc1,"inconclusive: 29.1 µM [falling, partial curve, poor fit]",
N#Cc1ccc(NC(=O)Nc2ccc(Cl)cc2)cc1,"inconclusive: 29.1 µM [falling, single point]",
CCCCNc1c2c3c(cccc3n(C)c1=O)C(=O)c1ccccc1-2,"inconclusive: 4.61 µM [activator, partial curve]",
CC(C)Oc1ccccc1C1CC(=O)Nc2cc3c(cc21)OCCO3 (configuration not stated),"inconclusive: 1.03 µM [falling, partial curve, poor fit]",
Cn1nnnc1Sc1ncnc2scc(I)c12,"inconclusive: 18.4 µM [falling, single point]",
FC(F)(F)C1=Nc2cccc3cccc(c23)N1,"inconclusive: 25.9 µM [falling, partial curve, poor fit]",
O=S(=O)(Nc1cc2nc3ccccc3nc2n1Cc1ccccc1)c1ccc(Cl)cc1,"inconclusive: 14.6 µM [activator, partial curve]",
Cc1ccc(C(=O)/C=C/c2cc(C#N)n(C)c2C)cc1,,inactive: 14.8%
COc1cc(NC(=O)c2cc3cccc(OC)c3o2)cc(C(=O)Nc2cccc(C(F)(F)F)c2)c1,,inactive: -2.77%
CCc1ccc(C2=CC(c3cccc(C)c3)n3c(nc4ccccc43)N2)cc1 (configuration not stated),,inactive: -17.6%
